Data taken from patent publication US20200115357A1, “LIVER X RECEPTORS (LXR) MODULATORS” (Phenex-FXR GmbH, priority 2017, published 2020).
For at least one compound, name, drawing or mass did not settle the structure.

Sequences of proteins named here, by UniProt entry; tags and fusion partners are left off. A change or cut given only in a name is not applied to a line headed by its entry.
UniProt P55055: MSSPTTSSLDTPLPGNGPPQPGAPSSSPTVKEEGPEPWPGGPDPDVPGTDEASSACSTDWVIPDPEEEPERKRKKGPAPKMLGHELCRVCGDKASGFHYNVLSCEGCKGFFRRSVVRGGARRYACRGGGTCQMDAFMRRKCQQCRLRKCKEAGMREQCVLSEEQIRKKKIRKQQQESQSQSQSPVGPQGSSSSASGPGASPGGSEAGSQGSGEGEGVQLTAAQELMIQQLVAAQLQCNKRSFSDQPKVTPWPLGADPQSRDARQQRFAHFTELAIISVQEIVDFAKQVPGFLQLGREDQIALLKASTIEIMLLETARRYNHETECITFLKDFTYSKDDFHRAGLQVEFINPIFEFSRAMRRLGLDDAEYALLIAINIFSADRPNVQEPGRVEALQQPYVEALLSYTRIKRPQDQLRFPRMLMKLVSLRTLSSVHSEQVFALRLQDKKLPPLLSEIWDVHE

Target: T1, GST-LXRβ ligand-binding domain (Homo sapiens, UniProt P55055, DUP175-175)
T1 construct: amino acids 156-461; NP009052; made in house; host or cells: E. coli
T1 sequence (P55055 with tags, fused parts or gaps DUP175-175): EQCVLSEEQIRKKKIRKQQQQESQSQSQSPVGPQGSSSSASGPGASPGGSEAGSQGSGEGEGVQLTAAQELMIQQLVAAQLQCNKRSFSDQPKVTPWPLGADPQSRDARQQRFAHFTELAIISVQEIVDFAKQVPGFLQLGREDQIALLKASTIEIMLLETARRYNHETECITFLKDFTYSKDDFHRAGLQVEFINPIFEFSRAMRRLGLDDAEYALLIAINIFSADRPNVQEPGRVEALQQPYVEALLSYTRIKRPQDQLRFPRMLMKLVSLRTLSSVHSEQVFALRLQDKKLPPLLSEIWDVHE
Experiment: TR-FRETβ activity assay (LXRβ-LBD / NCoA3 coactivator peptide, prestimulated with 24(S)-25-epoxycholesterol)
Format: biochemical
Design: key: ag=agonist; ia=inverse agonist
Conditions: agonist or inverse agonist
Method: The tested compounds were usually dissolved, tested and stored as 20 mM stock solutions in DMSO. […] Sulfonyl acetic acid derivatives are shelf stable as solid at rt for long time as reported by Griesbrecht et al. (Synlett 2010:374) or Faucher et al. (J. Med. Chem. 2004; 47:18). TR-FRETβ Activity Assay Recombinant GST-LXRβ ligand-binding domain (LBD; amino acids 156-461; NP009052; SEQ ID NO:2) was expressed in E. coli and purified via gluthatione-sepharose affinity chromatography. N-terminally biotinylated NCoA3 coactivator peptide (SEQ ID NO:1) was chemically synthesized (Eurogentec). […] Finally, a detection mix was added containing anti GST-Tb cryptate (CisBio; 610SAXLB) and Streptavidin-XL665 (CisBio; 610SAXLB) as fluorescent donor and acceptor, respectively, as well as the coactivator peptide and LXRβ-LBD protein (SEQ ID NO:2). The reaction was mixed thoroughly, equilibrated for 1 h at 4° C. and vicinity of LXRβ and coactivator peptide was detected by measurement of fluorescence in a VictorX4 multiplate reader (PerkinElmer Life Science) using 340 nm as excitation and 615 and 665 nm as emission wavelengths. Assays were performed in triplicates. Final Assay Concentrations of Components: 240 mM KCl, 1 μg/μL BSA, 0.002% Triton-X-100, […] anti GST-Tb cryptate, 2.5 ng/μL Streptavidin-XL665, coactivator peptide (400 nM), LXRβ protein ([…], i.e. 76 nM)

With `Cc1cc(C)c(S(=O)(=O)N(Cc2ccc(-c3cccc(S(=O)(=O)CC(=O)O)c3)cc2)C(C)(C)c2ccc(C(F)(F)F)o2)c(C)c1` [Example 17, 2-((4′-(((2,4,6-Trimethyl-N-(2-(5-(trifluoromethyl)furan-2-yl)propan-2-yl)phenyl)sulfon-amido)methyl)-[1,1′-biphenyl]-3-yl)sulfonyl)acetic acid] the “behavior in FRET assay” value was “ia”.

For `Cc1cc(C)c(S(=O)(=O)N(Cc2ccc(-c3cccc(S(=O)(=O)CC(=O)O)c3)cc2)Cc2ccc(C(F)(F)F)o2)c(C)c1` [Example 5, 2-((4′-(((2,4,6-Trimethyl-N-((5-(trifluoromethyl)furan-2-yl)methyl)phenyl)sulfonamido)methyl)-[1,1′-biphenyl]-3-yl)sulfonyl)acetic acid], the “behavior in FRET assay” value was “ia”.
